Measured values taken from paper PMC7557402, “Evaluation of Nucleoside Analogs as Antimicrobials Targeting Unique Enzymes in Borrelia burgdorferi” (Pathogens, 2020).

System: Borrelia MTANs (Bgp, MtnN, Pfs)
Test: MTAN activity/kinetics, across the nucleosidases
Type: biochemical
Conditions: Bgp and Pfs
Description: Enzyme specific activities were determined using previously reported optimal pH conditions (50 mM sodium phosphate, pH = 7, for Bgp, MtnN; 50 mM sodium phosphate-citrate, pH = 5, for Pfs) and a spectrophotometric activity assay that measures the decrease in UV absorbance at 275 nm that occurs when MTA is cleaved to 5-methylthioribose and adenine (ε275 = 1.6 mM^−1cm^−1). The extinction coefficients for cleavage of other nucleosides were experimentally validated and found to be the same for MSeA, FSBA, and IADO (ε275 = 1.6 mM^−1cm^−1). Due to the added UV absorbance imparted by the 5′ purine group found in PurTA, the enzyme reactions were followed spectrophotometrically at 260 nm using the experimentally determined extinction coefficient of ε260 = 5.6 mM^−1cm^−1. Enzyme specific activities for MTA were generally 1–2 U/mg (1 U = µmol MTA hydrolyzed/min). The enzyme specific activities for other nucleosides were determined and reported in U/mg and as the % max specific activity (relative to MTA at 100%).
Kinetic constants have been previously reported for MTA [18]. […]

5′-deoxy-5′-methylselenoadenosine [MSeA]
Km higher than reported for MTA: approximately 3 fold
